Data as given in paper PMC2430599, “Solution Structure and Sugar-Binding Mechanism of Mouse Latrophilin-1 RBL: a 7TM Receptor-Attached Lectin-Like Domain” (Structure(London, England:1993), 2008).
These are yes or no findings as the source states them, for the method shown.

What was measured:
[1] = biological target: RBL domain of mouse Latrophilin-1 (residues 30–134) (mouse) (UniProt Q80TR1); assay: AUC; sedimentation equilibrium, 4°C, 20 μM protein in PBS, 25,000 rpm for 48 hr, absorbance at 280 nm, fit to an ideal monodisperse model; both purified
[2] = biological target: RBL domain of mouse Latrophilin-1 (residues 30–134) (mouse) (UniProt Q80TR1); assay: condition: high protein concentrations (NMR samples 1–2 mM unless otherwise noted); NMR protein dynamics; 30°C, NMR samples 1–2 mM protein in 20 mM sodium phosphate pH 7.0, 2 mM EDTA, unless otherwise noted; both purified

B1: RBL domain of mouse Latrophilin-1 (residues 30–134) (domain or fragment, UniProt Q80TR1 30-134)
chain: LPFGLMRRELACEGYPIELRCPGSDVIMVENANYGRTDDKICDADPFQMENVQCYLPDAFKIMSQRCNNRTQCVVVAGSDAFPDPCPGTYKYLEVQYDCVPYIFV
Q: B1 was tested. Which binding [1] did it give?
A: no binding (tested: 20 μM)

Q: And the binding [2]?
A: no binding
